{"source": "patent US9271493B2", "about": "“Methods for microbial biofilm destruction” (priority 2012, dated 2016)", "key": {"E. coli": {"test_system": "E. coli", "assay": "biofilm formation attached to Teflon (1 mL Teflon beakers, crystal violet)", "format": "cell-based", "conditions": "48 hours at 26° C. in YESCA broth", "protocol": "FIG. 4. Curcumin and dim ethyl curcumin reduce E. coli biofilm formation attached to Teflon using 1 mL Teflon beakers. After bacterial incubation for 48 hours at 26° C. in YESCA nutrient broth in the presence or absence of compounds, planktonic and loosely associated bacteria were washed from the beakers and adherent bacteria were stained with crystal violet, dissolved in ethanol and quantified by spectrophotometry.\nTeflon is often used as a material in various industrial and biomedical applications, including the production of catheters. Teflon is often employed due to its general anti-adherent properties. Yet, even E. coli can adhere to Teflon and forms biofilms on Teflon surfaces. Thus, we also examined the ability of curcumin and DMC to prevent biofilm formation attached to Teflon using small 1-mL Teflon beakers."}, "UTI89": {"test_system": "UTI89", "assay": "colony biofilm formation on YESCA agar", "format": "cell-based, uropathogenic E. coli", "conditions": "UTI89, 5 days of bacterial growth", "protocol": "Growth conditions. UTI89, UTI89ΔcsgA, MC4100, and MC4100Δcsg were grown on YESCA (0.5 g/L yeast extract; 10 g/L Casamino acids) agar supplemented with additional compounds as indicated.\nBiofilm assays. Colony biofilm formation was initiated by spotting 10 μl of overnight bacterial culture onto a YESCA agar plate (Kolodkin-Gal et al. (2010) Science 328:627-629). Colony morphology was observed after designated growth times at 26° C. Biofilm in YESCA broth attached to plastic (polyvinyl chloride, PVC) was determined using the Kolter crystal violet assay as described by O'Toole et al. (1998) Mol. Microbiol. 28:449-461. Briefly, bacterial cells were grown in 96-well PVC plates; unattached cells were washed away; and cells remaining associated with the PVC wells were stained with 0.1% crystal violet. The extent of biofilm formation was quantified by measuring the absorbance of crystal violet at OD595 after dissolving the PVC-associated biomass in 95% ethanol. The percent biofilm represents the increase in biofilm formation in the presence of various concentrations of DMSO and ethanol relative to biofilm formation when no compound was present. The mean of triplicate individual experiments was used and error bars represent the standard deviation. […] Pellicle formation was inspected visually and assessed by perturbation with a pipet tip after 72 hours of growth."}}, "note": "At least one structure is not confirmed: it was looked up by name or label, or the drawing left a doubt."}
{"smiles": "COc1ccc(/C=C/C(=O)CC(=O)/C=C/c2ccc(OC)c(OC)c2)cc1OC", "note": "[DMC, dimethoxycurcumin]", "values": [{"measurement": "biofilm formation attached to Teflon", "setting": "E. coli", "result": "effective at significantly preventing biofilm formation"}, {"measurement": "biofilm inhibition on agar after 5 days", "setting": "UTI89", "result": "exhibited its influence even out to 5 days"}]}
